We go through one molecule from PMC9765674.

In this assay the target is 3xFLAG-tagged VP3 of rotavirus SA11, expressed by the recombinant virus rSA11-VP3-3xFLAG (simian rotavirus SA11 (group A rotavirus)). Kind of assay: affinity purification with mass spectrometry; HT-29 cells pretreated with 20 uM MG-132 and infected (MOI 5) with rSA11-VP3-3xFLAG or rSA11-NSP1-3xFLAG-UnaG; harvested 7 h pi; clarified lysates immunoprecipitated with anti-FLAG M2 magnetic beads; LC-MS on Orbitrap Fusion Lumos.

These are yes or no findings as the source states them, for the method shown. Binding seen in cells or lysates may run through a third protein. Here binding means that the protein was enriched with, or labelled near, the bait; the list need not be complete. A no says only that the protein was not detected with the bait.

B1: RNase L, endogenous in HT-29 cells (enzyme, UniProt Q05823 1-741)
chain: MESRDHNNPQEGPTSSSGRRAAVEDNHLLIKAVQNEDVDLVQQLLEGGANVNFQEEEGGWTPLHNAVQMSREDIVELLLRHGADPVLRKKNGATPFILAAIAGSVKLLKLFLSKGADVNECDFYGFTAFMEAAVYGKVKALKFLYKRGANVNLRRKTKEDQERLRKGGATALMDAAEKGHVEVLKILLDEMGADVNACDNMGRNALIHALLSSDDSDVEAITHLLLDHGADVNVRGERGKTPLILAVEKKHLGLVQRLLEQEHIEINDTDSDGKTALLLAVELKLKKIAELLCKRGASTDCGDLVMTARRNYDHSLVKVLLSHGAKEDFHPPAEDWKPQSSHWGAALKDLHRIYRPMIGKLKFFIDEKYKIADTSEGGIYLGFYEKQEVAVKTFCEGSPRAQREVSCLQSSRENSHLVTFYGSESHRGHLFVCVTLCEQTLEACLDVHRGEDVENEEDEFARNVLSSIFKAVQELHLSCGYTHQDLQPQNILIDSKKAAHLADFDKSIKWAGDPQEVKRDLEDLGRLVLYVVKKGSISFEDLKAQSNEEVVQLSPDEETKDLIHRLFHPGEHVRDCLSDLLGHPFFWTWESRYRTLRNVGNESDIKTRKSESEILRLLQPGPSEHSKSFDKWTTKINECVMKKMNKFYEKRGNFYQNTVGDLLKFIRNLGEHIDEEKHKKMKLKIGDPSLYFQKTFPDLVIYVYTKLQNTEYRKHFPQTHSPNKPQCDGAGGASGLASPGC
Take B1: the binding result is on record as “no binding”.
